Article PMC6113249
Results are given in words; binding and its absence hold for the method and conditions named. Binding seen in cells or lysates may run through a third protein. Some results given as binding are weak or reduced against the parent protein; the word gives no strength.

Sequences of proteins named here, by UniProt entry; tags and fusion partners are left off. A change or cut given only in a name is not applied to a line headed by its entry. A line that says so, or that is headed by a name, gives the form on record, which may keep a tag or linker.
UniProt P02340: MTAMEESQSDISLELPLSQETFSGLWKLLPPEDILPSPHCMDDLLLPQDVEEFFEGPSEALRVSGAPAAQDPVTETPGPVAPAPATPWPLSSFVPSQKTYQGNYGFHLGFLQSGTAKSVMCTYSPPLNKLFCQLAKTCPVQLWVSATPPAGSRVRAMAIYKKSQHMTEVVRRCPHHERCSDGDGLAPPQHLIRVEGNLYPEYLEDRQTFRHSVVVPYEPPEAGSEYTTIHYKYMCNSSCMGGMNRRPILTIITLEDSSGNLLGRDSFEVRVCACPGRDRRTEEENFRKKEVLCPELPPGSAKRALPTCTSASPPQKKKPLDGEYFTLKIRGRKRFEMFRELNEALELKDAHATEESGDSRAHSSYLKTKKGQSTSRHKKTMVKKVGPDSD
phospho-Creb1 (mouse (endogenous in primary osteoblastic cells)) (Q01147-1, form named): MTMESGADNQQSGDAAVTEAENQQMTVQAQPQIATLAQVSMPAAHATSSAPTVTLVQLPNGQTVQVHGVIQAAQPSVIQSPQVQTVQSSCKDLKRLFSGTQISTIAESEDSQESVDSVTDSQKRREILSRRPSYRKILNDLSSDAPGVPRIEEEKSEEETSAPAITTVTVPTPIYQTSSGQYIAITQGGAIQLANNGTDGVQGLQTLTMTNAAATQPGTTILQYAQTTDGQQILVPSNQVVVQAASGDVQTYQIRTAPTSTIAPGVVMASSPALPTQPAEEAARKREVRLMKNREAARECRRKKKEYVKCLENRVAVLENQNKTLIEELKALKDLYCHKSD
UniProt P45481: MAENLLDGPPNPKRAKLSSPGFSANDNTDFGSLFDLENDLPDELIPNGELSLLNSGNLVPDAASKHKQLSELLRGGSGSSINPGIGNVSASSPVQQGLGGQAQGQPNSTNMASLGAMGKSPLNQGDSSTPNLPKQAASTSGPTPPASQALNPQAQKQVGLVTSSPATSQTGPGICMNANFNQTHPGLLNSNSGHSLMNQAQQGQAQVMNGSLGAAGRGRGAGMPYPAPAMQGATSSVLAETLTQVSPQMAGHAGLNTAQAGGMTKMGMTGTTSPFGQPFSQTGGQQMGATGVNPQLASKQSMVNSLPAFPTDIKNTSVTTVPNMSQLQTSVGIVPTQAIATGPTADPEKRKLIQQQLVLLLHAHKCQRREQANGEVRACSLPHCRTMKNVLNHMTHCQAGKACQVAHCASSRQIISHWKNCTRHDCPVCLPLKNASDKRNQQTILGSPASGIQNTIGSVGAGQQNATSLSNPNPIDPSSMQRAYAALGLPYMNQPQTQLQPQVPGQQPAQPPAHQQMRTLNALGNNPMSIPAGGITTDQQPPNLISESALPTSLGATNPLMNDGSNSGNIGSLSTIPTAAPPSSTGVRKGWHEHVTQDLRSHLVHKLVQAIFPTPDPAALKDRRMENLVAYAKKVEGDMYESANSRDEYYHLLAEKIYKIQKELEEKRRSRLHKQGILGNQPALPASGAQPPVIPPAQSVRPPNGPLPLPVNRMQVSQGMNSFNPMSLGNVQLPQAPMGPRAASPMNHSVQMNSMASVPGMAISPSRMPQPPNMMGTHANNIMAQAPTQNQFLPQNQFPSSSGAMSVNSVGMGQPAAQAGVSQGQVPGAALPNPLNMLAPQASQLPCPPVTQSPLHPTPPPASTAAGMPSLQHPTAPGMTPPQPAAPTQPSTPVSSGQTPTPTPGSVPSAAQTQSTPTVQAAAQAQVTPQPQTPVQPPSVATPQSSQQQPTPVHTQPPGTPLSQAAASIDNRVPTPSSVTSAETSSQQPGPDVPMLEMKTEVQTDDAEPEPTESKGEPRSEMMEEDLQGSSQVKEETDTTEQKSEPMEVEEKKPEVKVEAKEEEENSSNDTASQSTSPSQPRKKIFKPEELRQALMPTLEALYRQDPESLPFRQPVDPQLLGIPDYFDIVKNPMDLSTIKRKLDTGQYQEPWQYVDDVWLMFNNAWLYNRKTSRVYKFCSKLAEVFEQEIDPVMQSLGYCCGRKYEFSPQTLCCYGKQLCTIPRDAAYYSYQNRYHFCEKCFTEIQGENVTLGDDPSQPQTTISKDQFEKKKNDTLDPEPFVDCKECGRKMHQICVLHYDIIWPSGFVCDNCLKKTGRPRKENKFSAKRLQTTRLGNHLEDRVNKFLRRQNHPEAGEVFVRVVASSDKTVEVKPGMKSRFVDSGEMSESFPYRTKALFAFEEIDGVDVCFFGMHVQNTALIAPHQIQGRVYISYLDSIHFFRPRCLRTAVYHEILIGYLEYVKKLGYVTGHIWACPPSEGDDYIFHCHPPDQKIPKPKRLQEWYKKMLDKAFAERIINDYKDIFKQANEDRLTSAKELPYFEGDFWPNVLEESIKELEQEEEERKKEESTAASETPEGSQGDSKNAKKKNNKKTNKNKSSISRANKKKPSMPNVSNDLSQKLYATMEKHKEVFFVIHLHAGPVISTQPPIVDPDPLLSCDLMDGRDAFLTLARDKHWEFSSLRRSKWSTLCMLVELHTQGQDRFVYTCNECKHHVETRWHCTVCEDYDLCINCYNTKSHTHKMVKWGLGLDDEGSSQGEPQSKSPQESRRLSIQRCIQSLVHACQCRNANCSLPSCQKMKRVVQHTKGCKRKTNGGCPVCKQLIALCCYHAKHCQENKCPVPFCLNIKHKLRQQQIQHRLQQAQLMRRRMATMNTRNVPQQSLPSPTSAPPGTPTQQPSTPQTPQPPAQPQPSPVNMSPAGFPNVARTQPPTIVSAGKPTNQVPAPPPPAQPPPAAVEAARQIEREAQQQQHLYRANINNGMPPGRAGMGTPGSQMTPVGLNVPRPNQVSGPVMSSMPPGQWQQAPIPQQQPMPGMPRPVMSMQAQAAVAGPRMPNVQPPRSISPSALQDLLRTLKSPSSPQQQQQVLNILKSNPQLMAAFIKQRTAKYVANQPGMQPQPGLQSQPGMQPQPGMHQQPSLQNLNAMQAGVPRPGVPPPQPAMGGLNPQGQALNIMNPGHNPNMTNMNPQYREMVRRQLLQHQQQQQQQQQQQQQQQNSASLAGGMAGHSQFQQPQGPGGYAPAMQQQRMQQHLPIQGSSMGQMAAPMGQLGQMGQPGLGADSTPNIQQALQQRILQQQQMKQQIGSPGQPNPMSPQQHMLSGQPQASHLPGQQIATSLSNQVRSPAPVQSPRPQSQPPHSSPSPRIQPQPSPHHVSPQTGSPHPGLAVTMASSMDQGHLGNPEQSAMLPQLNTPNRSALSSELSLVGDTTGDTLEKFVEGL

Key:
[1] = molecular target: p53 (mouse (endogenous in primary osteoblastic cells)) (UniProt P02340); experiment: co-IP; immunoprecipitation with p53 antibody (1C12) from lysates of isogenic p53 WT/WT and p53 KO/KO cells treated with DMSO, 10 uM Nutlin, 10 uM forskolin or forskolin + Nutlin; western blot
[2] = molecular target: Creb1 (mouse (endogenous in primary osteoblastic cells)) (UniProt Q01147); experiment: co-IP; immunoprecipitation with CREB1 antibody (ab31387) or phospho-CREB1 antibody (Cell Signaling 9198) from lysates of isogenic p53 WT/WT and p53 KO/KO primary osteoblastic cells; 1% NP-40 lysis buffer, low salt, high salt (500 mM NaCl) and LiCl washes; western blot
[3] = molecular target: Cbp (mouse (endogenous in primary osteoblastic cells)) (UniProt P45481); experiment: co-IP; immunoprecipitation with CBP antibody (C-1, sc-7300) from lysates of isogenic p53 WT/WT and p53 KO/KO primary osteoblastic cells; 1% NP-40 lysis buffer, low salt, high salt and LiCl washes; western blot
[4] = molecular target: phospho-Creb1 (mouse (endogenous in primary osteoblastic cells)) (UniProt Q01147); experiment: co-IP; immunoprecipitation with CREB1 antibody (ab31387) or phospho-CREB1 antibody (Cell Signaling 9198) from lysates of isogenic p53 WT/WT and p53 KO/KO primary osteoblastic cells; 1% NP-40 lysis buffer, low salt, high salt (500 mM NaCl) and LiCl washes; western blot

binding [1] | binding [2] | binding [3] | binding [4] | Substance
binds | binds |  |  | Cbp (from UniProt P45481 1-2441)
binds |  | binds |  | Creb1 (from UniProt Q01147-1 1-341)
 | binds | binds | binds | p53 (from UniProt P02340 1-390)
